# Experimental data from US5359135A, “Triasulfurone compounds” (priority 1990, dated 1994).
# Assays:
# Design in all cases: species or system mouse (Balb/c)
# MAb 4147-19-4 [1] = assay: ELISA determination of triasulfurone added to soil extracts, MAb 4147-19-4 (Table 2); conditions: Method A
# MAb 4149-1-1 = assay: ELISA determination of triasulfurone added to soil extracts, MAb 4149-1-1 (Table 2); conditions: Method A
# MAb 4147-19-4 [2] = assay: soil-matrix effect, comparison of extraction methods, MAb 4147-19-4 (Table 3)
# MAb 4147-19-4 [3] = assay: recovery of triasulfurone from enriched soil samples, MAb 4147-19-4 (Table 4); conditions: Method C
# [4] = Collombey soil extract, 1 ppb added
# [5] = Les Evouettes soil extract, 1 ppb added
# [6] = Speyer soil extract, 10 ppb added (so in the source)
# [7] = Stein soil extract, 0.1 ppb added
# [8] = Stein soil extract, 0.3 ppb added
# [9] = Stein soil extract, 1 ppb added
# [10] = Vetroz soil extract, 0.1 ppb added
# [11] = Vetroz soil extract, 0.3 ppb added
# [12] = Vetroz soil extract, 1 ppb added
# [13] = Vetroz (Expt. 2), 0.1 ppb added
# [14] = Vetroz (Expt. 2), 0.3 ppb added
structure (smiles),measurement,setting,value
"COc1nc(C)nc(NC(=O)NS(=O)(=O)c2ccccc2OCCCl)n1 [triasulfurone, 3-(6-methoxy-4-methyl-1,3,5-triazin-2-yl)-1-[2-(2-chloroethoxy)-phenylsulfonyl]-urea]",triasulfurone found,MAb 4147-19-4 [1]; [4],99%
same,triasulfurone measured,MAb 4147-19-4 [1]; [4],1.08 ppb
same,triasulfurone found,MAb 4147-19-4 [1]; [5],81%
same,triasulfurone measured,MAb 4147-19-4 [1]; [5],0.91 ppb
same,triasulfurone found,MAb 4147-19-4 [1]; [6],99%
same,triasulfurone measured,MAb 4147-19-4 [1]; [6],1.03 ppb
same,triasulfurone found,MAb 4147-19-4 [1]; [7],70%
same,triasulfurone measured,MAb 4147-19-4 [1]; [7],0.13 ppb
same,triasulfurone found,MAb 4147-19-4 [1]; [8],110%
same,triasulfurone measured,MAb 4147-19-4 [1]; [8],0.39 ppb
same,triasulfurone found,MAb 4147-19-4 [1]; [9],108%
same,triasulfurone measured,MAb 4147-19-4 [1]; [9],1.14 ppb
same,triasulfurone found,MAb 4147-19-4 [1]; [10],90%
same,triasulfurone measured,MAb 4147-19-4 [1]; [10],0.26 ppb
same,triasulfurone found,MAb 4147-19-4 [1]; [11],90%
same,triasulfurone measured,MAb 4147-19-4 [1]; [11],0.44 ppb
same,triasulfurone found,MAb 4147-19-4 [1]; [12],94%
same,triasulfurone measured,MAb 4147-19-4 [1]; [12],1.11 ppb
same,triasulfurone found,MAb 4149-1-1; [4],98%
same,triasulfurone measured,MAb 4149-1-1; [4],1.04 ppb
same,triasulfurone found,MAb 4149-1-1; [5],89%
same,triasulfurone measured,MAb 4149-1-1; [5],1.00 ppb
same,triasulfurone found,MAb 4149-1-1; [6],88%
same,triasulfurone measured,MAb 4149-1-1; [6],0.95 ppb
same,triasulfurone found,MAb 4149-1-1; [7],130%
same,triasulfurone measured,MAb 4149-1-1; [7],0.20 ppb
same,triasulfurone found,MAb 4149-1-1; [8],107%
same,triasulfurone measured,MAb 4149-1-1; [8],0.39 ppb
same,triasulfurone found,MAb 4149-1-1; [9],97%
same,triasulfurone measured,MAb 4149-1-1; [9],1.04 ppb
same,triasulfurone found,MAb 4149-1-1; [10],60%
same,triasulfurone measured,MAb 4149-1-1; [10],0.23 ppb
same,triasulfurone found,MAb 4149-1-1; [11],100%
same,triasulfurone measured,MAb 4149-1-1; [11],0.47 ppb
same,triasulfurone found,MAb 4149-1-1; [12],93%
same,triasulfurone measured,MAb 4149-1-1; [12],1.10 ppb
same,triasulfurone measured,"MAb 4147-19-4 [2]; Collombey, extraction method A",0.09 ppb
same,triasulfurone measured,"MAb 4147-19-4 [2]; Collombey, extraction method C",0.03 ppb
same,triasulfurone measured,"MAb 4147-19-4 [2]; Les Evouettes, extraction method A",0.10 ppb
same,triasulfurone measured,"MAb 4147-19-4 [2]; Les Evouettes, extraction method B",0.02 ppb
same,triasulfurone measured,"MAb 4147-19-4 [2]; Les Evouettes, extraction method C (Expt. 1)",0.06 ppb
same,triasulfurone measured,"MAb 4147-19-4 [2]; Les Evouettes, extraction method C (Expt. 2)",0.07 ppb
same,triasulfurone measured,"MAb 4147-19-4 [2]; Speyer, extraction method A",0.04 ppb
same,triasulfurone measured,"MAb 4147-19-4 [2]; Speyer, extraction method C",0.02 ppb
same,triasulfurone measured,"MAb 4147-19-4 [2]; Stein, extraction method A",0.06 ppb
same,triasulfurone measured,"MAb 4147-19-4 [2]; Stein, extraction method C",0.01 ppb
same,triasulfurone measured,"MAb 4147-19-4 [2]; Vetroz, extraction method A",0.17 ppb
same,triasulfurone measured,"MAb 4147-19-4 [2]; Vetroz, extraction method B",0.03 ppb
same,triasulfurone measured,"MAb 4147-19-4 [2]; Vetroz, extraction method C (Expt. 1)",0.02 ppb
same,triasulfurone measured,"MAb 4147-19-4 [2]; Vetroz, extraction method C (Expt. 2)",0.07 ppb
same,triasulfurone found,"MAb 4147-19-4 [3]; Les Evouettes, 0.5 ppb added",0.37 ppb
same,triasulfurone found (%),"MAb 4147-19-4 [3]; Les Evouettes, 0.5 ppb added",62%
same,triasulfurone found,"MAb 4147-19-4 [3]; Les Evouettes, 1 ppb added",0.71 ppb
same,triasulfurone found (%),"MAb 4147-19-4 [3]; Les Evouettes, 1 ppb added",65%
same,triasulfurone found,"MAb 4147-19-4 [3]; Les Evouettes, 10 ppb added",7.41 ppb
same,triasulfurone found (%),"MAb 4147-19-4 [3]; Les Evouettes, 10 ppb added",74%
same,triasulfurone found,"MAb 4147-19-4 [3]; Stein, 0.1 ppb added",0.12 ppb
same,triasulfurone found (%),"MAb 4147-19-4 [3]; Stein, 0.1 ppb added",110%
same,triasulfurone found,"MAb 4147-19-4 [3]; Stein, 0.3 ppb added",0.25 ppb
same,triasulfurone found (%),"MAb 4147-19-4 [3]; Stein, 0.3 ppb added",80%
same,triasulfurone found,"MAb 4147-19-4 [3]; Stein, 1 ppb added",0.63 ppb
same,triasulfurone found (%),"MAb 4147-19-4 [3]; Stein, 1 ppb added",62%
same,triasulfurone found,MAb 4147-19-4 [3]; [13],0.19 ppb
same,triasulfurone found (%),MAb 4147-19-4 [3]; [13],120%
same,triasulfurone found,MAb 4147-19-4 [3]; [14],0.31 ppb
same,triasulfurone found (%),MAb 4147-19-4 [3]; [14],80%
same,triasulfurone found,"MAb 4147-19-4 [3]; Vetroz (Expt. 2), 1 ppb added",0.60 ppb
same,triasulfurone found (%),"MAb 4147-19-4 [3]; Vetroz (Expt. 2), 1 ppb added",53%
same,triasulfurone found,"MAb 4147-19-4 [3]; Vetroz, 0.1 ppb added",0.14 ppb
same,triasulfurone found (%),"MAb 4147-19-4 [3]; Vetroz, 0.1 ppb added",120%
same,triasulfurone found,"MAb 4147-19-4 [3]; Vetroz, 0.5 ppb added",0.34 ppb
same,triasulfurone found (%),"MAb 4147-19-4 [3]; Vetroz, 0.5 ppb added",64%
same,triasulfurone found,"MAb 4147-19-4 [3]; Vetroz, 1 ppb added",0.68 ppb
same,triasulfurone found (%),"MAb 4147-19-4 [3]; Vetroz, 1 ppb added",66%
same,triasulfurone found,"MAb 4147-19-4 [3]; Vetroz, 10 ppb added",6.60 ppb
same,triasulfurone found (%),"MAb 4147-19-4 [3]; Vetroz, 10 ppb added",66%
